Tested on: bacterial biofilms
Test: MBEC (Minimum Biofilm Eradication Concentration) assay using the Calgary Biofilm Device
Format: cell-based
Details: 0.01% silver, 0.1M acetate buffer

CC(C)(C)CC(C)(C)c1ccc(OCCOCC[N+](C)(C)Cc2ccccc2)cc1 [benzethonium chloride]
Surfactant concentration required to eradicate biofilm in the MBEC model (pH 5.5): 0.025% | Surfactant concentration required to eradicate biofilm in the MBEC model (pH 6.2): ≤ 0.10% | Surfactant concentration required to eradicate biofilm in the MBEC model (pH 6.9): > 0.25%

Source: patent US9675077B2, “Composition comprising antimicrobial metal ions and a quaternary cationic surfactant” (CONVATEC TECHNOLOGIES INC., priority 2011, dated 2017)
